Results as given in the supplement of paper PMC10060354, “Discovery of a small molecule ligand of FRS2 that inhibits invasion and tumor growth” (Cellular Oncology, 2022).

The chains behind the UniProt entries cited, without tags or fusion partners. Where a name states a change or a piece, a line headed by the entry shows the natural chain unless it says otherwise.
UniProt Q9Y605: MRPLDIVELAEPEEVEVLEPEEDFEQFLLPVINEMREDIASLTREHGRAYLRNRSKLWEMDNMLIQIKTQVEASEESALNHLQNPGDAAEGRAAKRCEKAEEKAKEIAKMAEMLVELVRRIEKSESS
UniProt P56134: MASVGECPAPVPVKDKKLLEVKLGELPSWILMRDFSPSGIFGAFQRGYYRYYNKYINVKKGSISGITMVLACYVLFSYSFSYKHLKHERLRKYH
UniProt Q6VN20, whole entry: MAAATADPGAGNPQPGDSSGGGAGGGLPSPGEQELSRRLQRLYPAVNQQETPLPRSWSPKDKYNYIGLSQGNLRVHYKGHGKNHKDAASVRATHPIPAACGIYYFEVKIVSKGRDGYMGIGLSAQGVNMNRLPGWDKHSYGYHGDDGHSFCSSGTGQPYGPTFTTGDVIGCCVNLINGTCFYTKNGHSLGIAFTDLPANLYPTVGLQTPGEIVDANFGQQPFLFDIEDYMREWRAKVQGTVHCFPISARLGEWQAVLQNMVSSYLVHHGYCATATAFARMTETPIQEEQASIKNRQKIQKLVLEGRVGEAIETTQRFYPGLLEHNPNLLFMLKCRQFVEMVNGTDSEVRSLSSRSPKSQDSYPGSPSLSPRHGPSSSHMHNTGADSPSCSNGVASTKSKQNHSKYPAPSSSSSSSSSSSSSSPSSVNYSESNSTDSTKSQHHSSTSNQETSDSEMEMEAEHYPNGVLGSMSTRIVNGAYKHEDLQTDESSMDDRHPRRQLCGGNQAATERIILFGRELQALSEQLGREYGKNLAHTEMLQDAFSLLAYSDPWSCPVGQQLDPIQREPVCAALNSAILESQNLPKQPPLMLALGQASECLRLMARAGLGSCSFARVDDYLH
UniProt Q15545, whole entry: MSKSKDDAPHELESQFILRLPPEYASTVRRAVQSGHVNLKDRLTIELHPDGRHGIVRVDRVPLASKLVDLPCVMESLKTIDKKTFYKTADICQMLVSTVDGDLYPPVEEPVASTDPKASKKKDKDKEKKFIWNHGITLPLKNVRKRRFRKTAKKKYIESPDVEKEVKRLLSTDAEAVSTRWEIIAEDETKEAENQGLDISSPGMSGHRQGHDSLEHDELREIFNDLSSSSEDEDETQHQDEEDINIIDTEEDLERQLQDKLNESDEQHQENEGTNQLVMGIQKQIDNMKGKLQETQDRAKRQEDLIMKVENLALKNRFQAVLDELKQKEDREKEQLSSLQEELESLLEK
UniProt Q06203, whole entry: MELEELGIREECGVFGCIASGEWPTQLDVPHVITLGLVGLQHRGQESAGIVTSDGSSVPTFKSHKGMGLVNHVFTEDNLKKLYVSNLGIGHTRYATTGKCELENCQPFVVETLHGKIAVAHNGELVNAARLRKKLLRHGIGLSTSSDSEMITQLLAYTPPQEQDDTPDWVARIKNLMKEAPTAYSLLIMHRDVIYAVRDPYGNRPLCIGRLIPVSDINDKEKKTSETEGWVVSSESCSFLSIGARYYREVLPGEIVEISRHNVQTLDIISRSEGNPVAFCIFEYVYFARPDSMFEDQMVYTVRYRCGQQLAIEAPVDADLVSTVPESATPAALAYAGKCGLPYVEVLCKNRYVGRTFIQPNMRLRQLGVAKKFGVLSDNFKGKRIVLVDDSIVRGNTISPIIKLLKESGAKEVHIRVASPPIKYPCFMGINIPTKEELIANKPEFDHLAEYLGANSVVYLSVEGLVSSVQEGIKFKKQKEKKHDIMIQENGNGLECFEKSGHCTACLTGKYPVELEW
UniProt Q05397, whole entry, looked up: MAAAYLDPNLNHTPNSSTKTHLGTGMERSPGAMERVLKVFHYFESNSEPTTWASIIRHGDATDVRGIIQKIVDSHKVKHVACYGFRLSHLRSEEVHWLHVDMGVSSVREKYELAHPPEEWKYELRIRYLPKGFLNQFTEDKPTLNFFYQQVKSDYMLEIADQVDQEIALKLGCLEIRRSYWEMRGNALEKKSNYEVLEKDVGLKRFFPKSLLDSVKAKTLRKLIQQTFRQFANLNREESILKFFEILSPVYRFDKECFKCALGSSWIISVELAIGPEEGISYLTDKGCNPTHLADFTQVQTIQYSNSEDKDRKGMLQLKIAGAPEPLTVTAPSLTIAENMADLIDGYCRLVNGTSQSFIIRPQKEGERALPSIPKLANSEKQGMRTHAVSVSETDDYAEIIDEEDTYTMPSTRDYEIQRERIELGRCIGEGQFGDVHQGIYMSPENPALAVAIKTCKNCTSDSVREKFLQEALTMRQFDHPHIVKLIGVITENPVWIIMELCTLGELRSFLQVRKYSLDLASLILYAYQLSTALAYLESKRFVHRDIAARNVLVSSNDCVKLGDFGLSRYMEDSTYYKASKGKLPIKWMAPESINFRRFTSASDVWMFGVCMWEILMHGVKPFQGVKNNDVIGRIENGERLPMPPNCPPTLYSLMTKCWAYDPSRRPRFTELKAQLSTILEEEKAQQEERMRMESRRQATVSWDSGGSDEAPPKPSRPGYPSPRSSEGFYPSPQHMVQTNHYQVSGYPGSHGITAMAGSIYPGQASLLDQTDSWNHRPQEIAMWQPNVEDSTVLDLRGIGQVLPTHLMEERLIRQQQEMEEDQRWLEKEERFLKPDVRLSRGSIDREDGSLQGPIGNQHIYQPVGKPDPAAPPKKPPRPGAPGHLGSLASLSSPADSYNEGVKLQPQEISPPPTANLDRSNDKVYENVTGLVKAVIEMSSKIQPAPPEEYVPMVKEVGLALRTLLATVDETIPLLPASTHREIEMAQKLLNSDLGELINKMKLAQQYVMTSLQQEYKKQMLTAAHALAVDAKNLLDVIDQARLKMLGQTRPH
UniProt Q9Y5P6: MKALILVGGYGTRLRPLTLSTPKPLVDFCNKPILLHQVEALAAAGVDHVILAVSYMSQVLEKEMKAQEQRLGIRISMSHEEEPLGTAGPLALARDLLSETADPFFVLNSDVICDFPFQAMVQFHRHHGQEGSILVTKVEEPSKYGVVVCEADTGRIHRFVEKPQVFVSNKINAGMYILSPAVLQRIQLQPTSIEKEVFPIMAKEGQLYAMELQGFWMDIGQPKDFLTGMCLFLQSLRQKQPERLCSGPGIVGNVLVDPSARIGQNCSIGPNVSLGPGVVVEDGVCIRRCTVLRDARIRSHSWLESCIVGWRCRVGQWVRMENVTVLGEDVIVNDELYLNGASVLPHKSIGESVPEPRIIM
UniProt Q6P3W7: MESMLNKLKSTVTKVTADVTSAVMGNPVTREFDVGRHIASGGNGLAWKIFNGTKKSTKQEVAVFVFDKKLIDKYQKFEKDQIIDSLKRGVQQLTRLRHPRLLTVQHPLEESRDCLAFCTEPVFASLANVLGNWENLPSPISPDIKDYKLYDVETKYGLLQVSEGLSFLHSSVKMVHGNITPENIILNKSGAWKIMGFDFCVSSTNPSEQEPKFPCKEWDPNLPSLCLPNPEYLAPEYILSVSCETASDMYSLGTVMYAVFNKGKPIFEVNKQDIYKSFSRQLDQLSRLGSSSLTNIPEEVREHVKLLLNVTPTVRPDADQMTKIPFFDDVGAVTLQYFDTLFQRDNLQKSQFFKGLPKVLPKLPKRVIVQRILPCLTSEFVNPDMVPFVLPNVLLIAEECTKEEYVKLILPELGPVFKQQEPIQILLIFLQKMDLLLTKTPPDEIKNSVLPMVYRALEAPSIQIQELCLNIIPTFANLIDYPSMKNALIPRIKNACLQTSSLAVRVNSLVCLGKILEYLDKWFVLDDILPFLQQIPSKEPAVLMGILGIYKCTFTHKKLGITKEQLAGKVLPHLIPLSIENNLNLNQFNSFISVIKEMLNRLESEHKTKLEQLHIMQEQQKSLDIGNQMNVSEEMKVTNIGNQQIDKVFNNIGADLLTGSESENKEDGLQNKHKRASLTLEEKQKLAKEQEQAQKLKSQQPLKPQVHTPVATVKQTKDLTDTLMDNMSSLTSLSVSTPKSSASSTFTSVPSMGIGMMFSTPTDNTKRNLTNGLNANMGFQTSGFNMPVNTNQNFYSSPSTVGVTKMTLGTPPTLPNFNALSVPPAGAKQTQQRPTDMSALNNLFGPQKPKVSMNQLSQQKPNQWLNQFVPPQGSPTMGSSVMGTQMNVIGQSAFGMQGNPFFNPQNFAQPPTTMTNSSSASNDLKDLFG
UniProt Q5SRD1: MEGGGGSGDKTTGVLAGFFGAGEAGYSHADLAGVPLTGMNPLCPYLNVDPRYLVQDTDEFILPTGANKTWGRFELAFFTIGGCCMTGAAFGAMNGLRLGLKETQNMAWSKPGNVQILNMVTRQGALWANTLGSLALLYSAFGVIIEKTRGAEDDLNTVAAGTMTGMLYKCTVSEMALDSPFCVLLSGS
UniProt Q9BV38: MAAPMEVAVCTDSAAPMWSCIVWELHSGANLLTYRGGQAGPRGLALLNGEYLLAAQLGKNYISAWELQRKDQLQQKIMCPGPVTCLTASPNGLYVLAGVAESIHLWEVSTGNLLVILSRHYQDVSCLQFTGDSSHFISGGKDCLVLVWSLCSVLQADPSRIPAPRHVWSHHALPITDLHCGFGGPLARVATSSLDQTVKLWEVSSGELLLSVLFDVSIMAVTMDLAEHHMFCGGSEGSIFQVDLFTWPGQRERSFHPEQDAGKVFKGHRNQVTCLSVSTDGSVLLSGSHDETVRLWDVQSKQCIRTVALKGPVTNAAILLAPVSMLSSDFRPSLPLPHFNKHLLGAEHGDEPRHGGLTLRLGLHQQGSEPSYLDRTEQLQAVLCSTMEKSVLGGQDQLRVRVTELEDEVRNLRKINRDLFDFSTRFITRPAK
UniProt Q8IVE0: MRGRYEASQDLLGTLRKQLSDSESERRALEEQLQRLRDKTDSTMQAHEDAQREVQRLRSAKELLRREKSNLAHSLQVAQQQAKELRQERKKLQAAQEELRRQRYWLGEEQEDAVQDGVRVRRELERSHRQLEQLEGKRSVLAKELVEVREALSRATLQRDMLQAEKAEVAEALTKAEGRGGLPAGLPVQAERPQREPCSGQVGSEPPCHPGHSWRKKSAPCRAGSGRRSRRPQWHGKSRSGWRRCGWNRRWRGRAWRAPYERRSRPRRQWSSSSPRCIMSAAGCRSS
UniProt Q9H299: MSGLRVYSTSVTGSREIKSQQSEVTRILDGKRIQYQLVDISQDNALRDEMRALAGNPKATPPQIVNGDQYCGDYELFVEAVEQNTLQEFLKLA
UniProt Q9NZN8, whole entry: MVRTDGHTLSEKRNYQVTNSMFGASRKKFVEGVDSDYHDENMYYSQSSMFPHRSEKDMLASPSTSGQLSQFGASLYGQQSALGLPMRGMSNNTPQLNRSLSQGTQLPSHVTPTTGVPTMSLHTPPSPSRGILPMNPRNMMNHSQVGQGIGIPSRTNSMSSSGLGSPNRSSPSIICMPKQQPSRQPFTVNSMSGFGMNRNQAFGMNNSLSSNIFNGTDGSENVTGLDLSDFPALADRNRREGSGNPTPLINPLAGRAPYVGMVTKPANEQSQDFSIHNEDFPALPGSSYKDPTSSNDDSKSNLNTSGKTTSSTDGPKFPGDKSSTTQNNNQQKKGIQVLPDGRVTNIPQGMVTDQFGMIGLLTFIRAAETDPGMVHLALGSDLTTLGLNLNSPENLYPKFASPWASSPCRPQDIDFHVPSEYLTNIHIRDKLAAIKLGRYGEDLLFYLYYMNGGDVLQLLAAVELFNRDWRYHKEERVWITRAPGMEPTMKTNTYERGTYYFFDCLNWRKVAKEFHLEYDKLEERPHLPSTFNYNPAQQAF
UniProt Q15650: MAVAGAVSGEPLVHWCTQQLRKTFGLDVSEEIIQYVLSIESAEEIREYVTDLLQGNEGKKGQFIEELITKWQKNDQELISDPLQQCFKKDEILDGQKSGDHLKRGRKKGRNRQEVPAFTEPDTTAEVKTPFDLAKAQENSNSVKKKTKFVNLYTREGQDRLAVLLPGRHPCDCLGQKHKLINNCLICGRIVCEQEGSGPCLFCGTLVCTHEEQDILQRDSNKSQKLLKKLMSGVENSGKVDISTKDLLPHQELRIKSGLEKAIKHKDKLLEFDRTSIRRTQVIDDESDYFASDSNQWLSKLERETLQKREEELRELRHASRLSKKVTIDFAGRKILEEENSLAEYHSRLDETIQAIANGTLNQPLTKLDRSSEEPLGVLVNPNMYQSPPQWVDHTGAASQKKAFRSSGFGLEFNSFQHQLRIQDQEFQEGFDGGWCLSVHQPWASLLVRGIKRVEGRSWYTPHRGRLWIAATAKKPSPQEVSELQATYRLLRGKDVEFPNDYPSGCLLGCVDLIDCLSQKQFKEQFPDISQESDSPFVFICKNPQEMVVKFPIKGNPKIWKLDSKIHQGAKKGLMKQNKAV
UniProt Q16186: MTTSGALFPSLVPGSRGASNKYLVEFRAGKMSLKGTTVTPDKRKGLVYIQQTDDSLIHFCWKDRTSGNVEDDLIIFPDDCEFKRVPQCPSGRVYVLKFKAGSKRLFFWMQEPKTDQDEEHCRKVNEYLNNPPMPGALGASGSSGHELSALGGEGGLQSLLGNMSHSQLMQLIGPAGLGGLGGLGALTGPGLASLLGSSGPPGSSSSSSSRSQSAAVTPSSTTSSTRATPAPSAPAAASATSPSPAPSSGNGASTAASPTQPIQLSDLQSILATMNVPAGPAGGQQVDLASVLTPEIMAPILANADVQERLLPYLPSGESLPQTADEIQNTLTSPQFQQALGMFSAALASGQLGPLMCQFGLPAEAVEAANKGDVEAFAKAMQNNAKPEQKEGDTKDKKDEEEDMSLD

Compound: [O-][N+](C(C1=C(C(O)=C2)NC(C(C=C3)=CC=C3Cl)C4C1C=CC4)=C2Cl)=O
Test: melting temperature shift (compound 7 minus DMSO); higher = compound stabilises the protein
Details: 10 µM
Protocol: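 Thermal proteome profiling (TMT mass spectrometry) in intact DAOY medulloblastoma cells or DAOY lysates treated with 10 µM compound 7 or DMSO, heated at 10 temperatures from 40.5 to 73.8 °C for 3 min. Melting curves were fitted with the Bioconductor TPP package, and the melting point difference between compound and vehicle is reported per protein (single curve per condition).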

[1] = system: DAOY cell lysate, treatment time: 20 min, 4 °C
[2] = system: intact DAOY cells, treatment time: 90 min, 37 °C

Target	melting temperature shift [1]	melting temperature shift [2]
COPA (UniProt P53621)	-0.776 °C	0.0614 °C
NCAPD3 (UniProt P42695)	-1.65 °C	1.6 °C
RPL10A (UniProt P62906)	0.364 °C	-0.505 °C
UniProt Q8IW92		1.51 °C
UniProt Q6ZMR3		-1.73 °C
MRFAP1 (UniProt Q9Y605)	1.45 °C	
UniProt Q9HBM6		-1.4 °C
ALG11 (UniProt Q2TAA5)		-1.08 °C
ATP5J2 (UniProt P56134)	0.285 °C	-1.21 °C
RANBP10 (UniProt Q6VN20)	-0.36 °C	2.35 °C
STX5 (UniProt Q13190)	0.15 °C	-1.4 °C
UniProt Q9NUK0		-0.214 °C
DDX39A (UniProt O00148)	0.199 °C	-0.4 °C
NEURL4 (UniProt Q96JN8)	-1.69 °C	0.394 °C
ACTN1 (UniProt P12814)	-0.743 °C	1.05 °C
UniProt O43602		-0.962 °C
FUBP3 (UniProt Q96I24)	0.933 °C	-0.48 °C
USP47 (UniProt Q96K76)	-0.411 °C	0.324 °C
TTN (UniProt Q8WZ42)	-0.601 °C	
TAF7 (UniProt Q15545)	-1.84 °C	0.22 °C
HIST1H1C (UniProt P16403)	1.59 °C	-1.24 °C
VPS52 (UniProt Q8N1B4)	-0.248 °C	-0.388 °C
DNAJA2 (UniProt O60884)	-0.254 °C	0.439 °C

Target	melting temperature shift [1]	melting temperature shift [2]
C20ORF24 (UniProt Q9BUV8)	-0.371 °C	
ETNK1 (UniProt Q9HBU6)	-1.41 °C	0.652 °C
TIMM17B (UniProt O60830)	0.0449 °C	-2.58 °C
DTYMK (UniProt P23919)	-0.858 °C	-3.04 °C
PPAT (UniProt Q06203)	-0.83 °C	1.09 °C
STRIP1 (UniProt Q5VSL9)	0.179 °C	0.502 °C
UniProt Q8ND30		0.194 °C
COG3 (UniProt Q96JB2)	-0.187 °C	-0.337 °C
TRIO (UniProt O75962)	-0.374 °C	-0.583 °C
UniProt Q8TAV4		3.92 °C
UniProt Q96A57	3.79 °C	
UniProt Q8IX01	0.147 °C	0.127 °C
PAFAH1B1 (UniProt P43034)	-0.72 °C	0.000612 °C
DUSP3 (UniProt P51452)	-0.286 °C	0.243 °C
MPG (UniProt P29372)	-1.54 °C	
UniProt Q9H9B1	-0.61 °C	-0.272 °C
UniProt Q9BWL3		-1.3 °C
UniProt Q68DX3	0.251 °C	
CD46 (UniProt P15529)		0.514 °C
UniProt Q9NQA3		0.634 °C
SART1 (UniProt O43290)	-0.242 °C	0.0597 °C
AGK (UniProt Q53H12)	1.45 °C	0.533 °C
UniProt O94804	-0.121 °C	-0.709 °C

Target	melting temperature shift [1]	melting temperature shift [2]
THBS1 (UniProt P07996)	0.466 °C	-0.178 °C
GORASP2 (UniProt Q9H8Y8)	0.106 °C	0.322 °C
HMBS (UniProt P08397)	-0.344 °C	0.899 °C
UniProt Q05397	-0.438 °C	-0.992 °C
COX7A2L (UniProt O14548)	3.22 °C	0.639 °C
MED20 (UniProt Q9H944)	-0.457 °C	-0.667 °C
UniProt P28482	-0.439 °C	0.118 °C
UniProt Q5U3C3	1.35 °C	-3.11 °C
STRADA (UniProt Q7RTN6)	-2.2 °C	
CBLB (UniProt Q13191)		0.379 °C
FLNA (UniProt P21333)	-0.263 °C	-0.5 °C
UniProt Q96CB8	-0.45 °C	0.149 °C
MYCBP2 (UniProt O75592)	1.57 °C	
RPAP1 (UniProt Q9BWH6)	-0.0298 °C	-0.556 °C
CRLF3 (UniProt Q8IUI8)	-0.019 °C	0.471 °C
CSTF2T (UniProt Q9H0L4)	-0.768 °C	-3.11 °C
ELP3 (UniProt Q9H9T3)	-0.494 °C	-1.01 °C
UniProt P49418	-0.418 °C	-0.266 °C
PGGT1B (UniProt P53609)	-0.802 °C	-0.0363 °C
PREB (UniProt Q9HCU5)	1.53 °C	1.65 °C
RPL6 (UniProt Q02878)	0.898 °C	-0.495 °C
NUP35 (UniProt Q8NFH5)	0.559 °C	0.229 °C
TTK (UniProt P33981)	-0.862 °C	-0.118 °C

Target	melting temperature shift [1]	melting temperature shift [2]
HNRNPK (UniProt P61978)	0.439 °C	-0.165 °C
FAM136A (UniProt Q96C01)	0.811 °C	
UniProt Q9P1T7		4.89 °C
GMPPB (UniProt Q9Y5P6)	-1.04 °C	
UniProt Q14781	0.671 °C	
POLR2D (UniProt O15514)	-1.38 °C	-0.96 °C
UBR3 (UniProt Q6ZT12)	-1.07 °C	0.934 °C
RALGAPA1 (UniProt Q6GYQ0)	-0.964 °C	-0.822 °C
PKCgamma (UniProt P05129)		-1.8 °C
SCYL2 (UniProt Q6P3W7)	-0.569 °C	-0.0609 °C
UniProt Q5SRD1		-2.64 °C
UniProt Q8N7R7	-3.44 °C	0.647 °C
WDR18 (UniProt Q9BV38)	0.139 °C	2.61 °C
PLXNA1 (UniProt Q9UIW2)	0.0924 °C	-0.329 °C
NSF (UniProt P46459)	0.676 °C	-0.711 °C
UniProt Q8IZN3	-0.517 °C	
MAN1B1 (UniProt Q9UKM7)	-0.378 °C	-1.44 °C
UniProt Q9Y5U8	-0.97 °C	1.2 °C
UniProt O75525		0.333 °C
UniProt P62314	0.319 °C	1.9 °C
UniProt Q8IVE0		-1.79 °C
SUPT4H1 (UniProt P63272)	-1.47 °C	-0.364 °C
UniProt P50225	-1.02 °C	1.34 °C

Some values from the entries so far.
UniProt Q96A57 | melting temperature shift [1]: 3.79 °C
UBR3 (UniProt Q6ZT12) | melting temperature shift [2]: 0.934 °C
UniProt P62314 | melting temperature shift [1]: 0.319 °C
FAM136A (UniProt Q96C01) | melting temperature shift [1]: 0.811 °C

Later entries.

Target	melting temperature shift [1]	melting temperature shift [2]
RPAP2 (UniProt Q8IXW5)		-0.194 °C
SH3BGRL3 (UniProt Q9H299)	0.481 °C	0.0491 °C
PSAT1 (UniProt Q9Y617)	-0.855 °C	0.416 °C
CNOT2 (UniProt Q9NZN8)	-0.433 °C	-1.02 °C
NBN (UniProt O60934)	-1.73 °C	-0.181 °C
UniProt P55085	-1.2 °C	
FIGNL1 (UniProt Q6PIW4)	-0.95 °C	-1.96 °C
TRIP4 (UniProt Q15650)	-0.668 °C	0.188 °C
VCL (UniProt P18206)		0.118 °C
CC2D1A (UniProt Q6P1N0)	-1.68 °C	-1.17 °C
POFUT2 (UniProt Q9Y2G5)	0.279 °C	0.736 °C
MCC (UniProt P23508)	0.963 °C	
PDCD6 (UniProt O75340)	-0.0622 °C	0.253 °C
UBE2K (UniProt P61086)	-1.5 °C	0.142 °C
LRRC8E (UniProt Q6NSJ5)	-0.277 °C	-2.48 °C
UniProt Q9Y2N7		-1.06 °C
PACSIN3 (UniProt Q9UKS6)	-0.196 °C	0.722 °C
NRBP1 (UniProt Q9UHY1)	-0.597 °C	0.381 °C
OARD1 (UniProt Q9Y530)	-0.123 °C	0.706 °C
ARPC5L (UniProt Q9BPX5)	-0.539 °C	1.08 °C
ADRM1 (UniProt Q16186)	-0.575 °C	-0.186 °C
DHRS7 (UniProt Q9Y394)		2.73 °C

Retrieved one by one from the list above, 2 records:
Target	melting temperature shift [1]	melting temperature shift [2]
LRRC8E (UniProt Q6NSJ5)	-0.277 °C	-2.48 °C
OARD1 (UniProt Q9Y530)	-0.123 °C	0.706 °C

Many values rest on one well or one pass, so single values are uncertain.
